{"source": "patent EP0448811A1", "about": "“New pharmaceutical composition with anti-inflammatory activity” (SCLAVO S.p.A., priority 1989, dated 1991)", "tested_on": "adjuvant-induced arthritis in the rat", "assay": "adjuvant-induced arthritis in the rat (secondary lesion, uninjected paw volume by water plethysmometer)", "format": "in vivo, consanguineous Lewis rats", "conditions": "oral (intragastric intubation), 1 mg/kg, three times per week from day 0 until the 38th day; paw volume from the 14th day", "note": "At least one peptide structure holds a part that was inferred or is arguable (an end, a ring closure or a residue). Peptide text beside a SMILES is read from it."}
{"compound": "C[C@@H](O)[C@H](N)C(=O)N[C@@H](CCCCN)C(=O)N1CCC[C@H]1C(=O)N[C@@H](CCCNC(=N)N)C(=O)O", "note": "[T-N, Thr-Lys-Pro-Arg] (H-TKPR-OH)", "values": [{"measurement": "anti-inflammatory activity (reduction in the volume of the uninjected paw)", "result": "considerable anti-inflammatory activity"}]}
